The supplement of paper PMC9233669
Variants at the background level are over-represented here.

How the values were obtained:
biotinyl-Leu-oxazolone = experiment: self-aminoacylation, catalytic enhancement (BLO) (fold over background); higher = more active; k-Seq, kA / k0A0; sequences stand for … in GGGAAUGGAUCCACAUCUACGAAUUC…UUCACUGCAGACUUGACGAAGCUG
Outline: (§1)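 The uncatalyzed rate is the low-activity peak of a bimodal Gaussian fit, and catalytic enhancement is median kA divided by it. The kA values came from pseudo-first-order fits, with 1000 bootstraps, of per-sequence fraction reacted measured by streptavidin capture, triplicate qPCR and Illumina sequencing. Mutagenized RNA pools with a 21-nt variable region (0.43 μM) were reacted with each biotinyl-aminoacyl-oxazolone at 2–1250 μM in 50 μL HEPES/NaCl/KCl/MgCl2/CaCl2 buffer with 5% acetonitrile, pH 6.9–7.0, for 90 minutes at room temperature.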

biotinyl-Val-oxazolone = experiment: self-aminoacylation, catalytic enhancement (BVO) (fold over background); higher = more active; k-Seq, kA / k0A0; sequences stand for … in GGGAAUGGAUCCACAUCUACGAAUUC…UUCACUGCAGACUUGACGAAGCUG
Outline: as §1

biotinyl-Ile-oxazolone = experiment: self-aminoacylation, catalytic enhancement (BIO) (fold over background); higher = more active; k-Seq, kA / k0A0; sequences stand for … in GGGAAUGGAUCCACAUCUACGAAUUC…UUCACUGCAGACUUGACGAAGCUG
Outline: as §1

biotinyl-Trp-oxazolone = experiment: self-aminoacylation, catalytic enhancement (BWO) (fold over background); higher = more active; k-Seq, kA / k0A0; sequences stand for … in GGGAAUGGAUCCACAUCUACGAAUUC…UUCACUGCAGACUUGACGAAGCUG
Outline: as §1

biotinyl-Met-oxazolone = experiment: self-aminoacylation, catalytic enhancement (BMO) (fold over background); higher = more active; k-Seq, kA / k0A0; sequences stand for … in GGGAAUGGAUCCACAUCUACGAAUUC…UUCACUGCAGACUUGACGAAGCUG
Outline: as §1

“AAGUUUGCUAAUAGUCAAAAG [Fam3.1 aminoacylation ribozyme variant]” showed a self-aminoacylation (biotinyl-Leu-oxazolone) of 1.15, a self-aminoacylation (biotinyl-Val-oxazolone) of 1.07 and a self-aminoacylation (biotinyl-Ile-oxazolone) of 1.35. For the same sequence, the self-aminoacylation (biotinyl-Trp-oxazolone) was 1.5 and the self-aminoacylation (biotinyl-Met-oxazolone) was 1.35.

“AAGUUUGCUAAUAGUUGCGAG [Fam3.1 aminoacylation ribozyme variant]” gave a self-aminoacylation (biotinyl-Leu-oxazolone) of 1.5, a self-aminoacylation (biotinyl-Val-oxazolone) of 1.26 and a self-aminoacylation (biotinyl-Ile-oxazolone) of 1.3. The self-aminoacylation (biotinyl-Trp-oxazolone) was 1.21 and the self-aminoacylation (biotinyl-Met-oxazolone) was 1.28.

In the case of “AAGUUUGCUAAUGGUCGCACG [Fam3.1 aminoacylation ribozyme variant]”, the self-aminoacylation (biotinyl-Leu-oxazolone) is reported as 1.12, the self-aminoacylation (biotinyl-Val-oxazolone) is reported as 1.1 and the self-aminoacylation (biotinyl-Ile-oxazolone) is reported as 0.891. The self-aminoacylation (biotinyl-Trp-oxazolone) was 0.68 and the self-aminoacylation (biotinyl-Met-oxazolone) was 0.956.

For “AAGUUUGGUAAAAGUCGCAAG [Fam3.1 aminoacylation ribozyme variant]”, the self-aminoacylation (biotinyl-Leu-oxazolone) was 1.96, the self-aminoacylation (biotinyl-Val-oxazolone) was 1.47 and the self-aminoacylation (biotinyl-Ile-oxazolone) was 1.62. It also gave a self-aminoacylation (biotinyl-Trp-oxazolone) of 1.89 and a self-aminoacylation (biotinyl-Met-oxazolone) of 1.44.

In the case of “AAGUUUUCCAAUAGUCGCAAG [Fam3.1 aminoacylation ribozyme variant]”, the self-aminoacylation (biotinyl-Leu-oxazolone) is reported as 1.45, the self-aminoacylation (biotinyl-Val-oxazolone) is reported as 1.35 and the self-aminoacylation (biotinyl-Ile-oxazolone) is reported as 1.56. It also gave a self-aminoacylation (biotinyl-Trp-oxazolone) of 1.52 and a self-aminoacylation (biotinyl-Met-oxazolone) of 1.5.

“AAGUUUUCUAAUAGUCGCAAU [Fam3.1 aminoacylation ribozyme variant]” showed a self-aminoacylation (biotinyl-Leu-oxazolone) of 1.71, a self-aminoacylation (biotinyl-Val-oxazolone) of 1.52 and a self-aminoacylation (biotinyl-Ile-oxazolone) of 1.95. It also gave a self-aminoacylation (biotinyl-Trp-oxazolone) of 1.84 and a self-aminoacylation (biotinyl-Met-oxazolone) of 1.33.

For “AAGUUUUCUAGUAGUCGCAAG [Fam3.1 aminoacylation ribozyme variant]”, the self-aminoacylation (biotinyl-Leu-oxazolone) was 1.27, the self-aminoacylation (biotinyl-Val-oxazolone) was 1.52 and the self-aminoacylation (biotinyl-Ile-oxazolone) was 1.89. The self-aminoacylation (biotinyl-Trp-oxazolone) was 1.06 and the self-aminoacylation (biotinyl-Met-oxazolone) was 1.47.

“ACACACUUCAACCAAUCGGUC [Fam1B.1 aminoacylation ribozyme variant]” gave a self-aminoacylation (biotinyl-Leu-oxazolone) of 2.16, a self-aminoacylation (biotinyl-Val-oxazolone) of 1.56 and a self-aminoacylation (biotinyl-Ile-oxazolone) of 1.69. The self-aminoacylation (biotinyl-Trp-oxazolone) was 26.6 and the self-aminoacylation (biotinyl-Met-oxazolone) was 1.65.

“ACUACCCUGGACAUCGAGUGA [Fam2.1 aminoacylation ribozyme variant]” was tested, and the self-aminoacylation (biotinyl-Leu-oxazolone) was 6.83, the self-aminoacylation (biotinyl-Val-oxazolone) was 2.92 and the self-aminoacylation (biotinyl-Ile-oxazolone) was 2.55. It also gave a self-aminoacylation (biotinyl-Trp-oxazolone) of 7.37 and a self-aminoacylation (biotinyl-Met-oxazolone) of 7.03.

Sequence “AGUACCCUGGUCAUCGAGUUA [Fam2.1 aminoacylation ribozyme variant]” has a self-aminoacylation (biotinyl-Leu-oxazolone) of 1.7, a self-aminoacylation (biotinyl-Val-oxazolone) of 1.38 and a self-aminoacylation (biotinyl-Ile-oxazolone) of 1.22. The self-aminoacylation (biotinyl-Trp-oxazolone) was 1.6 and the self-aminoacylation (biotinyl-Met-oxazolone) was 1.6.

In the case of “AGUCACCUAGUUCAUCGGGUG [Fam2.2 aminoacylation ribozyme variant]”, the self-aminoacylation (biotinyl-Leu-oxazolone) is reported as 4.05, the self-aminoacylation (biotinyl-Val-oxazolone) is reported as 3.29 and the self-aminoacylation (biotinyl-Ile-oxazolone) is reported as 3.71. It also gave a self-aminoacylation (biotinyl-Trp-oxazolone) of 5.16 and a self-aminoacylation (biotinyl-Met-oxazolone) of 4.14.

“AUACGUCAAACAAUCGGUCUG [Fam1A.1 aminoacylation ribozyme variant]” showed a self-aminoacylation (biotinyl-Leu-oxazolone) of 1.28, a self-aminoacylation (biotinyl-Val-oxazolone) of 1.36 and a self-aminoacylation (biotinyl-Ile-oxazolone) of 1.6. It also gave a self-aminoacylation (biotinyl-Trp-oxazolone) of 1.67 and a self-aminoacylation (biotinyl-Met-oxazolone) of 1.5.

With “AUACUUCAAACAAUCUGUCUG [Fam1A.1 aminoacylation ribozyme variant]” the self-aminoacylation (biotinyl-Leu-oxazolone) was 0.821, the self-aminoacylation (biotinyl-Val-oxazolone) was 1.09 and the self-aminoacylation (biotinyl-Ile-oxazolone) was 1.18. The self-aminoacylation (biotinyl-Trp-oxazolone) was 1.43 and the self-aminoacylation (biotinyl-Met-oxazolone) was 1.05.

Sequence “AUCCACCUAGGUCAUCGUGUG [Fam2.2 aminoacylation ribozyme variant]” has a self-aminoacylation (biotinyl-Leu-oxazolone) of 1.29, a self-aminoacylation (biotinyl-Val-oxazolone) of 1.17 and a self-aminoacylation (biotinyl-Ile-oxazolone) of 1.04. For the same sequence, the self-aminoacylation (biotinyl-Trp-oxazolone) was 1.3 and the self-aminoacylation (biotinyl-Met-oxazolone) was 1.22.

“AUGUUUGUUAAUAGUCGCAAG [Fam3.1 aminoacylation ribozyme variant]” gave a self-aminoacylation (biotinyl-Leu-oxazolone) of 1.49, a self-aminoacylation (biotinyl-Val-oxazolone) of 1.35 and a self-aminoacylation (biotinyl-Ile-oxazolone) of 1.7. It also gave a self-aminoacylation (biotinyl-Trp-oxazolone) of 1.97 and a self-aminoacylation (biotinyl-Met-oxazolone) of 1.7.

With “AUUACCCUGACCAUCGAGUGA [Fam2.1 aminoacylation ribozyme variant]” the self-aminoacylation (biotinyl-Leu-oxazolone) was 4.95, the self-aminoacylation (biotinyl-Val-oxazolone) was 2.95 and the self-aminoacylation (biotinyl-Ile-oxazolone) was 3.01. For the same sequence, the self-aminoacylation (biotinyl-Trp-oxazolone) was 5.06 and the self-aminoacylation (biotinyl-Met-oxazolone) was 4.2.

“AUUACCCUGGUCAGCGAUUGA [Fam2.1 aminoacylation ribozyme variant]” showed a self-aminoacylation (biotinyl-Leu-oxazolone) of 1.09, a self-aminoacylation (biotinyl-Val-oxazolone) of 1.11 and a self-aminoacylation (biotinyl-Ile-oxazolone) of 1.15. The self-aminoacylation (biotinyl-Trp-oxazolone) was 1.55 and the self-aminoacylation (biotinyl-Met-oxazolone) was 0.945.

Sequence “AUUACCCUGGUCAUAGAGUCA [Fam2.1 aminoacylation ribozyme variant]” has a self-aminoacylation (biotinyl-Leu-oxazolone) of 0.962, a self-aminoacylation (biotinyl-Val-oxazolone) of 0.974 and a self-aminoacylation (biotinyl-Ile-oxazolone) of 0.884. For the same sequence, the self-aminoacylation (biotinyl-Trp-oxazolone) was 0.529 and the self-aminoacylation (biotinyl-Met-oxazolone) was 0.82.

“AUUACCCUGGUCAUCAAGUGU [Fam2.1 aminoacylation ribozyme variant]” was tested, and the self-aminoacylation (biotinyl-Leu-oxazolone) was 1.47, the self-aminoacylation (biotinyl-Val-oxazolone) was 1.64 and the self-aminoacylation (biotinyl-Ile-oxazolone) was 1.16. For the same sequence, the self-aminoacylation (biotinyl-Trp-oxazolone) was 1.24 and the self-aminoacylation (biotinyl-Met-oxazolone) was 1.34.

For “AUUCAACUAGGUCAUCGUGUG [Fam2.2 aminoacylation ribozyme variant]”, the self-aminoacylation (biotinyl-Leu-oxazolone) was 1.17, the self-aminoacylation (biotinyl-Val-oxazolone) was 0.94 and the self-aminoacylation (biotinyl-Ile-oxazolone) was 0.938. It also gave a self-aminoacylation (biotinyl-Trp-oxazolone) of 1.02 and a self-aminoacylation (biotinyl-Met-oxazolone) of 1.01.

In the case of “AUUCACCUACGUCAUCGGGUU [Fam2.2 aminoacylation ribozyme variant]”, the self-aminoacylation (biotinyl-Leu-oxazolone) is reported as 1.93, the self-aminoacylation (biotinyl-Val-oxazolone) is reported as 1.55 and the self-aminoacylation (biotinyl-Ile-oxazolone) is reported as 1.39. It also gave a self-aminoacylation (biotinyl-Trp-oxazolone) of 1.54 and a self-aminoacylation (biotinyl-Met-oxazolone) of 1.31.

“AUUCACCUAGGUCAGCGGCUG [Fam2.2 aminoacylation ribozyme variant]” showed a self-aminoacylation (biotinyl-Leu-oxazolone) of 3.16, a self-aminoacylation (biotinyl-Val-oxazolone) of 1.83 and a self-aminoacylation (biotinyl-Ile-oxazolone) of 1.67. For the same sequence, the self-aminoacylation (biotinyl-Trp-oxazolone) was 1.82 and the self-aminoacylation (biotinyl-Met-oxazolone) was 2.5.

“AUUCACCUAGGUCAUGGGAUG [Fam2.2 aminoacylation ribozyme variant]” was tested, and the self-aminoacylation (biotinyl-Leu-oxazolone) was 0.611, the self-aminoacylation (biotinyl-Val-oxazolone) was 0.657 and the self-aminoacylation (biotinyl-Ile-oxazolone) was 0.596. It also gave a self-aminoacylation (biotinyl-Trp-oxazolone) of 0.315 and a self-aminoacylation (biotinyl-Met-oxazolone) of 0.66.

Sequence “AUUCACCUAGGUCGUCUGGUG [Fam2.2 aminoacylation ribozyme variant]” has a self-aminoacylation (biotinyl-Leu-oxazolone) of 1.44, a self-aminoacylation (biotinyl-Val-oxazolone) of 0.995 and a self-aminoacylation (biotinyl-Ile-oxazolone) of 0.962. It also gave a self-aminoacylation (biotinyl-Trp-oxazolone) of 1.19 and a self-aminoacylation (biotinyl-Met-oxazolone) of 1.4.

Sequence “AUUCAGCUAGGUCAUUGGGUG [Fam2.2 aminoacylation ribozyme variant]” has a self-aminoacylation (biotinyl-Leu-oxazolone) of 2.38, a self-aminoacylation (biotinyl-Val-oxazolone) of 2.55 and a self-aminoacylation (biotinyl-Ile-oxazolone) of 2.04. For the same sequence, the self-aminoacylation (biotinyl-Trp-oxazolone) was 3.25 and the self-aminoacylation (biotinyl-Met-oxazolone) was 2.62.

For “AUUCAUCUAGGUCAUCGGGCG [Fam2.2 aminoacylation ribozyme variant]”, the self-aminoacylation (biotinyl-Leu-oxazolone) was 3.27, the self-aminoacylation (biotinyl-Val-oxazolone) was 2.71 and the self-aminoacylation (biotinyl-Ile-oxazolone) was 2.58. For the same sequence, the self-aminoacylation (biotinyl-Trp-oxazolone) was 2.66 and the self-aminoacylation (biotinyl-Met-oxazolone) was 3.33.

For “CAACUUCAAACAAUCAGUCUG [Fam1A.1 aminoacylation ribozyme variant]”, the self-aminoacylation (biotinyl-Leu-oxazolone) was 1.41, the self-aminoacylation (biotinyl-Val-oxazolone) was 1.01 and the self-aminoacylation (biotinyl-Ile-oxazolone) was 1.22. It also gave a self-aminoacylation (biotinyl-Trp-oxazolone) of 11.2 and a self-aminoacylation (biotinyl-Met-oxazolone) of 0.974.

Sequence “CAACUUCACACAAUCGGUCUG [Fam1A.1 aminoacylation ribozyme variant]” has a self-aminoacylation (biotinyl-Leu-oxazolone) of 1.16, a self-aminoacylation (biotinyl-Val-oxazolone) of 1.06 and a self-aminoacylation (biotinyl-Ile-oxazolone) of 1.17. It also gave a self-aminoacylation (biotinyl-Trp-oxazolone) of 1.5 and a self-aminoacylation (biotinyl-Met-oxazolone) of 0.981.
